{"sequences": {"note": "Protein sequences, listed by entry. Tags and fused reporters are not part of them.", "UniProt Q0JBA9, entry or part of it": "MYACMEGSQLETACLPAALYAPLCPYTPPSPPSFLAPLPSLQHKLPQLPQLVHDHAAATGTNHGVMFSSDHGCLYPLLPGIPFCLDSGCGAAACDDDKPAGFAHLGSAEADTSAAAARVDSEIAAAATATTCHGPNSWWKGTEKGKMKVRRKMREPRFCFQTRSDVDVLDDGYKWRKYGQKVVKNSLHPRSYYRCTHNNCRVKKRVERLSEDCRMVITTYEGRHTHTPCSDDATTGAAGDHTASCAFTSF"}, "source": "paper PMC7819943", "about": "“Rice protein-binding microarrays: a tool to detect cis-acting elements near promoter regions in rice”", "note": "This is one part of the list.", "data": [{"biological_target": "OsWRKY34 (Oryza sativa, UniProt Q0JBA9 1-250)", "assay": "protein-binding microarray (RPBM); PBS, 2% BSA, 51.3 ng/ul salmon testes DNA, 50 uM zinc acetate, 200 nM TF, 25 C, 1 h; high values mean tight binding", "details": "protein: recombinant; tags: N-terminal polyhistidine and DsRed monomer fusion (pET32a); label: CyDye5-dUTP incorporated in the synthesized complementary strand; 3' TTTTT single-stranded linker to array surface; dsDNA, one strand shown", "how_it_was_run": "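Binding signal here means per-feature fluorescence intensity in arbitrary units. The values were read on an Axon 4000B scanner after a custom Agilent array, double-stranded by primer extension with Cy5-dUTP, was incubated with 200 nM protein at 25 °C for 1 h in PBS with 2% BSA, salmon testes DNA and 50 µM zinc acetate, then washed. The proteins were transcription factors with an N-terminal polyhistidine tag and DsRed, expressed in E. coli BL21-CodonPlus and purified on Ni–NTA.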", "values": [{"sequence": "AGATCAAGGCACCAAAGACTCTTCTTATACCTTTGTTTCACGGAGTCACCTAGTGCAG", "binding signal": "8810 fluorescence intensity (a.u.)"}, {"sequence": "TTTCTTTGTGATATTCTGGGACCTGTTATTTTTTGGCATTCGGAGTCACCTAGTGCAG", "binding signal": "8880 fluorescence intensity (a.u.)"}, {"sequence": "CTTCAGCTTCTCCATGGTTTTCTTTTTGTTTGCTCCAGCTCGGAGTCACCTAGTGCAG", "binding signal": "8230 fluorescence intensity (a.u.)"}, {"sequence": "AACTATATCTTAGTGTTTTGGGTTGGGACTAGTCTTATATCGGAGTCACCTAGTGCAG", "binding signal": "11600 fluorescence intensity (a.u.)"}, {"sequence": "GACCACACCGTCGACTATGCGCGAGCGCCTGTCCACCATGCGGAGTCACCTAGTGCAG", "binding signal": "9600 fluorescence intensity (a.u.)"}, {"sequence": "TCCCACGATCCGATCCCTGCTCGATCTCTTCTACTACCGACGGAGTCACCTAGTGCAG", "binding signal": "8940 fluorescence intensity (a.u.)"}, {"sequence": "ACTAATATACCGCTCCATTTTTCGTGCGAACTGTTTGTTTCGGAGTCACCTAGTGCAG", "binding signal": "10900 fluorescence intensity (a.u.)"}, {"sequence": "ACCACCACCACCACCGTCACCCAACTATTCTATTCTGAATCGGAGTCACCTAGTGCAG", "binding signal": "8260 fluorescence intensity (a.u.)"}, {"sequence": "ATGAAAGCTGTTTGGGTCGGGTTCACTAAATAGTCAGCAACGGAGTCACCTAGTGCAG", "binding signal": "9010 fluorescence intensity (a.u.)"}, {"sequence": "TTTTTATACTAGTACTACTACTAATCAGCTAATCAATCTCCGGAGTCACCTAGTGCAG", "binding signal": "8120 fluorescence intensity (a.u.)"}, {"sequence": "AACCTTGCTCTACACCACAGCATATGTCTCCCATACAACACGGAGTCACCTAGTGCAG", "binding signal": "8150 fluorescence intensity (a.u.)"}, {"sequence": "ATGTGTTTTATCATAAAATTGTATTCTATTGTATTACTTACGGAGTCACCTAGTGCAG", "binding signal": "10300 fluorescence intensity (a.u.)"}, {"sequence": "CCTCCGCCGCGGCGACGTCGAGGGAATCGGGGCGGGGCCGCGGAGTCACCTAGTGCAG", "binding signal": "10000 fluorescence intensity (a.u.)"}, {"sequence": "GCGCTTTCCTGCTCCCTTTTGGATTCAGTTACCATTCCGTCGGAGTCACCTAGTGCAG", "binding signal": "8980 fluorescence intensity (a.u.)"}, {"sequence": "ATATATGGCCTAGTCTCGCATCGATGAATTAAGTTGTAGTCGGAGTCACCTAGTGCAG", "binding signal": "10400 fluorescence intensity (a.u.)"}, {"sequence": "CTGCCTGTTTTCCACACACGGCTTTGCCCGCCGCCACGATCGGAGTCACCTAGTGCAG", "binding signal": "8310 fluorescence intensity (a.u.)"}, {"sequence": "GGTTTCCCTGAGGCATTTATGTTTGACTTGTTACTGTATACGGAGTCACCTAGTGCAG", "binding signal": "9300 fluorescence intensity (a.u.)"}, {"sequence": "TTGACCGAAAGTCATTGGTTTTTATCGGGTTTCATTCGGTCGGAGTCACCTAGTGCAG", "binding signal": "8420 fluorescence intensity (a.u.)"}, {"sequence": "GATAGTGTGTGTGTTTTGGGCTAGACTTTATCAAATAGAACGGAGTCACCTAGTGCAG", "binding signal": "8400 fluorescence intensity (a.u.)"}, {"sequence": "TCGTAGAGATGCATCCAGGGTTTACATTACCGGTTGACCACGGAGTCACCTAGTGCAG", "binding signal": "8740 fluorescence intensity (a.u.)"}, {"sequence": "CAGGTTATAAAACGTTTTGTCTTTAGTCAAAGTCAAACTACGGAGTCACCTAGTGCAG", "binding signal": "8650 fluorescence intensity (a.u.)"}, {"sequence": "ATCGCCGTCGTCTATTATTGTTGTGAAGGGTTGTTGGTTCCGGAGTCACCTAGTGCAG", "binding signal": "9020 fluorescence intensity (a.u.)"}, {"sequence": "CTCATGTGCTATTCCCATTTCTAACGCGCATCCAGCACTACGGAGTCACCTAGTGCAG", "binding signal": "10800 fluorescence intensity (a.u.)"}]}]}
